Results are given in words; binding and its absence hold for the method and conditions named. Some entries that bind do so weakly or less than the wild type.
Target: T1, Asporin (ASPN) protein (human) (UniProt Q9BXN1)
T1 sequence (looked up): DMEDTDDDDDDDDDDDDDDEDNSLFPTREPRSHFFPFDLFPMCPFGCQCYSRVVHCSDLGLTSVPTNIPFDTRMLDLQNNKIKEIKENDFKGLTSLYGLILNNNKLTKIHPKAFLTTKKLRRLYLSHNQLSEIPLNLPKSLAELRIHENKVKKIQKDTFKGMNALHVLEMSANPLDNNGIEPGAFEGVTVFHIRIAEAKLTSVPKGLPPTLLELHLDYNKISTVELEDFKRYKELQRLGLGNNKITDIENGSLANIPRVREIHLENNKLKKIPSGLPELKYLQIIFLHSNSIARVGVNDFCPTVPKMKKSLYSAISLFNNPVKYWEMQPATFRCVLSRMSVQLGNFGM
Assay: dot blot, and peptide blocking with western blot of MRC5 lysate

binding: binds
B1: anti-Asporin monoclonal antibody #10 (antibody, V domains shown)
VH: EVKLVETGGGLVQPGRPMKLSCVASGFTFSDYWMNWVRQSPEKGLEWVVQIRNKPYNYETYYSDSVKGRFTISRDDSKSCVYLQMNNLRAEDMGIYYCTAYYRYDVLFDYWGQGTSLTVSS
VL: DIQMTQTTSSLSASLGDRVTISCRASQDISNYLNWYQQKPEGTVKLLIYYTSRLHSGVPSRFSGSGSGTDYSLTISNLEQEDIATYFCQQSKTLPLTFGAGTKLELK

From patent EP4592312A1
